PubChem BioAssay AID1259254, NCATS – 2017
The deposit covers about 59,000 reagents; this is an unselected part. Of all reagents, about 1,550 (2.6%) are marked active. 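G2 share is only a proxy for re-replication; each gene was hit by three separate siRNAs, and active genes were retested.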 Reagents against one gene are numbered here. Not all columns of the deposit are shown. Reagent sequences are not shown. Not stated in the record: the amount of reagent.

Aim: 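Genome-wide screen for genes that prevent DNA re-replication in cancer cells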 (primary screen)
System: human HCT116 colorectal cancer cells
Reagents: single siRNA against human genes
Time to read-out: 3 days
Measured: 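Nuclei stained with Hoechst and imaged; cell-cycle phase assigned by DNA content; G2 share scaled per plate, non-targeting siRNA 0%, GMNN siRNA 100%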
Reading the numbers: G2 robust z-score and G2 cells, % of GMNN control: higher = more G2 cells, more excess DNA replication
Active means: 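An siRNA counts as active if its G2 robust z-score lies at least 5 MADs above the screen median; here such calls match roughly 38% of GMNN control or more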

TSEN2 #1 | G2 robust z-score = 0.319; G2 cells, % of GMNN control = 5.21; Outcome = inactive
TSEN2 #2 | G2 robust z-score = 0.66; G2 cells, % of GMNN control = 7.61; Outcome = inactive
TSEN2 #3 | G2 robust z-score = -0.453; G2 cells, % of GMNN control = -0.222; Outcome = inactive
LOC727961 (retired record) #1 | G2 robust z-score = -1.14; G2 cells, % of GMNN control = -5.02; Outcome = inactive
LOC727961 (retired record) #2 | G2 robust z-score = 4.56; G2 cells, % of GMNN control = 35; Outcome = inactive
LOC727961 (retired record) #3 | G2 robust z-score = -0.315; G2 cells, % of GMNN control = 0.751; Outcome = inactive
COMMD10 #1 | G2 robust z-score = -0.949; G2 cells, % of GMNN control = -3.71; Outcome = inactive
COMMD10 #2 | G2 robust z-score = 0.911; G2 cells, % of GMNN control = 9.38; Outcome = inactive
COMMD10 #3 | G2 robust z-score = -0.892; G2 cells, % of GMNN control = -3.31; Outcome = inactive
TMCO5B #1 | G2 robust z-score = -0.805; G2 cells, % of GMNN control = -2.69; Outcome = inactive
TMCO5B #2 | G2 robust z-score = 0.187; G2 cells, % of GMNN control = 4.28; Outcome = inactive
TMCO5B #3 | G2 robust z-score = -0.587; G2 cells, % of GMNN control = -1.17; Outcome = inactive
ECI2 #1 | G2 robust z-score = 1.58; G2 cells, % of GMNN control = 14.1; Outcome = inactive
ECI2 #2 | G2 robust z-score = -0.668; G2 cells, % of GMNN control = -1.73; Outcome = inactive
ECI2 #3 | G2 robust z-score = 3.49; G2 cells, % of GMNN control = 27.5; Outcome = inactive
CHTOP #1 | G2 robust z-score = 3.68; G2 cells, % of GMNN control = 28.8; Outcome = inactive
CHTOP #2 | G2 robust z-score = -0.202; G2 cells, % of GMNN control = 1.55; Outcome = inactive
CHTOP #3 | G2 robust z-score = -0.219; G2 cells, % of GMNN control = 1.43; Outcome = inactive
MKLN1 #1 | G2 robust z-score = 0.927; G2 cells, % of GMNN control = 9.49; Outcome = inactive
MKLN1 #2 | G2 robust z-score = 0.103; G2 cells, % of GMNN control = 3.69; Outcome = inactive
MKLN1 #3 | G2 robust z-score = -0.278; G2 cells, % of GMNN control = 1.01; Outcome = inactive
DYM #1 | G2 robust z-score = 0.339; G2 cells, % of GMNN control = 5.36; Outcome = inactive
DYM #2 | G2 robust z-score = 1.72; G2 cells, % of GMNN control = 15.1; Outcome = inactive
DYM #3 | G2 robust z-score = 0.841; G2 cells, % of GMNN control = 8.88; Outcome = inactive
